# Values joined by “and” are separate entries in the source; they are usually repeats but may differ in a detail not shown here. Equal values may be shown once. About 6,100 (1.1%) of roughly 580,000 compounds were called active. This list was built around the results that the source calls inconclusive (neither active nor inactive); the mix of calls is not that of the screen. Calls come from the whole dose curve; as a rule, active = well fitted inhibition curve with a large enough effect; inconclusive = small, poorly fitted or top-dose-only effect, or another doubt; inactive = no such curve, though single readings can be large or run the other way. A potency beside an inconclusive call is a rough fit, not a confirmed value.
# Amino acid sequences for entries named in this document (tags omitted).
# UniProt P18054, whole entry, looked up: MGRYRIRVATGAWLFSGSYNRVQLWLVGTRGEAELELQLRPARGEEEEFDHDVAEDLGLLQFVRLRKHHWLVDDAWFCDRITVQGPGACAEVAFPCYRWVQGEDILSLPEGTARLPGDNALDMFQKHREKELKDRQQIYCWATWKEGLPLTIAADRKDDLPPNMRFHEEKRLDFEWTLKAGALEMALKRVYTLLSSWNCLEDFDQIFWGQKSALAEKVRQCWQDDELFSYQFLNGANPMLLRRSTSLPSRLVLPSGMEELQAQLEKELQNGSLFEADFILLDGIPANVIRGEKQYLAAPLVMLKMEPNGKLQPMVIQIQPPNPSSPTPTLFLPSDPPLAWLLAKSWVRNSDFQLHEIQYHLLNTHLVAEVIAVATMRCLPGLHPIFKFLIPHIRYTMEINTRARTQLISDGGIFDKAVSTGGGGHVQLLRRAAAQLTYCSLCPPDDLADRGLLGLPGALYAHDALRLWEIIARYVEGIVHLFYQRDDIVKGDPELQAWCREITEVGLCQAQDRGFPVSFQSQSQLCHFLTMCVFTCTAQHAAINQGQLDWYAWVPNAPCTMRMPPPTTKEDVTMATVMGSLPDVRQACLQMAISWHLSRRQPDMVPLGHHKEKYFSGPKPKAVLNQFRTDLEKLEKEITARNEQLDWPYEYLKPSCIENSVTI
# Biological target: Polyunsaturated fatty acid lipoxygenase ALOX12 (Homo sapiens) (UniProt P18054)
# Assay: Primary qHTS assay for inhibitors of human arachidonate 12S-lipoxygenase (ALOX12): Round 2
# Conditions: purified 12hLO, xylenol orange hydroperoxide absorbance; activity change, negative = inhibition: at 108 µM (top of the series) unless noted
# In short: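 Purified human 12hLO (150 nM final) in 25 mM Hepes, 0.01% Triton X-100, pH 7.0 was preincubated 15 min at room temperature with compound. Then 40 uM arachidonic acid was added, 30 min. Hydroperoxide was read by Fe-XO absorbance ratio 573/405 nm.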
# % is set by controls: 0 for no effect and ±100 for the full control effect; potency is the fitted concentration of half-maximal effect.
SMILES,"activity change, negative = inhibition",Potency
O=C(c1cc2ccc3cccnc3c2[nH]1)N1CCCCC1,inactive: -5.36%,–
CC(=O)NC1=NN(C(C)=O)C2(S1)C(=O)N(C)c1ccc(F)cc12 (configuration not stated),–,"inconclusive: 63.1 µM [inhibitor, partial curve, poor fit]"
O=C(Nc1ccccc1C(=O)O)c1ccc(NC(=O)c2ccc(Br)o2)cc1,inactive: 0%,–
Cc1ccc2cc(CNC(C)C)c(=O)[nH]c2c1,–,"inconclusive: 89.1 µM [inhibitor, single point]"
COc1ccc2c(CC(=O)NCc3cccs3)coc2c1,–,"inconclusive: 70.8 µM [inhibitor, partial curve, poor fit]"
CNC(=S)/N=C(\Nc1ccc(C)cc1)c1ccccc1,–,"inconclusive: 89.1 µM [inhibitor, partial curve, poor fit]"
C=CCn1c(=O)c2c(nc(-c3ccc(S(=O)(=O)O)cc3)n2C)n(C)c1=O,–,"inconclusive: 79.4 µM [inhibitor, partial curve, poor fit] and inconclusive: 50.1 µM [inhibitor, partial curve]"
O=C1c2ccccc2C(c2nnnn2Cc2ccccc2)N1Cc1cccc(F)c1 (configuration not stated),–,"inconclusive: 158 µM [inhibitor, single point]"
O=C(N[C@@H]1c2ccccc2CC[C@@H]1OCc1ccccc1)c1ccc(C(F)(F)F)cc1,–,"inconclusive: 50.1 µM [inhibitor, single point]"
Cc1ccc2nc(-c3cccc(SC4CCCCC4)c3)c(NC3CCCCC3)n2c1,–,"inconclusive: 79.4 µM [inhibitor, partial curve, poor fit]"
COc1cc(OC)cc(C(=O)Nc2ccc(C(=O)c3ccncc3)cc2)c1,–,"inconclusive: 126 µM [inhibitor, single point]"
CC1CCN(c2nnc(-c3cccs3)c3ccccc23)CC1,–,"inconclusive: 44.7 µM [inhibitor, partial curve, poor fit]"
O=C(COC(=O)CCC(=O)c1cccs1)Nc1ncc(Cl)cc1Cl,–,"inconclusive: 12.6 µM [inhibitor, full curve, poor fit]"
CC1CCC(n2c(=S)[nH]c3ccccc3c2=O)CC1 (configuration not stated),–,"inconclusive: 25.1 µM [inhibitor, partial curve, poor fit]"
COc1cc(CN(CC(=O)NC(=O)NCC(C)C)C2CC2)ccc1OC(F)F,inactive: 22.7%,–
Brc1ccc2c(c1)-n1c(nc3ccccc31)CN2,–,"inconclusive: 44.7 µM [inhibitor, partial curve]"
Cc1nn(-c2nc3c(c(=O)n(CCN4CCCCC4)c(=O)n3C)n2C(C)C)c(C)c1C,inactive: -0.465%,–
CCN(CC)c1ccc(C=Nc2ccc(N(C)C)cc2)c(O)c1,–,"inconclusive: 35.5 µM [inhibitor, single point]"
O=C(NC1CCCc2c1[nH]c1ccccc21)c1ccccn1 (configuration not stated),–,"inconclusive: 56.2 µM [inhibitor, single point]"
CC(=O)c1ccc(-n2c(=O)[nH]c(=O)c3c(N)c(C(=O)c4ccc(Cl)cc4)sc32)cc1,inactive: -12.8%,–
COc1cc(NC(=O)c2nc3nc(C)cc(C(F)F)n3n2)cc(OC)c1OC,inactive: -4.72%,–

SMILES,"activity change, negative = inhibition",Potency
CNC(=O)N1CCC2(CC1)CN(C(C)=O)CC2COC (configuration not stated),inactive: 10.3%,–
COc1ccc(C(=O)Nc2cccnc2Sc2ccc(Cl)cc2)cc1,–,"inconclusive: 112 µM [inhibitor, partial curve, poor fit]"
O=C(NC(=S)Nc1cccc2c(O)cccc12)c1ccco1,–,"inconclusive: 22.4 µM [inhibitor, single point]"
Cc1cccc2c1NC(C)CC2C (configuration not stated),–,"inconclusive: 5.62 µM [inhibitor, full curve, poor fit] and inconclusive: 6.31 µM [inhibitor, partial curve, poor fit]"
COc1ccc2nc(C[C@@H]3C[C@@H](C(C)C)[C@H](CNCc4ccccc4OC)C=C3C)[nH]c2c1,inactive: -7.71%,–
COc1cccc(-c2nnc(NC(C)=O)o2)c1,inactive: 0.074%,–
COc1cccc(Oc2coc3cc(OCc4ccccc4F)ccc3c2=O)c1,–,"inconclusive: 100 µM [inhibitor, partial curve, poor fit]"
Cc1cc(Br)cc2c1N(Cc1ccccc1OC(C)C)C(=O)C2=O,–,"inconclusive: 10 µM [inhibitor, full curve] and active: 4.47 µM"
CCOC(=O)c1c(C)oc2c(CN3CCN(C)CC3)c(Br)c(OC)c(O)c12,–,"inconclusive: 28.2 µM [inhibitor, partial curve, poor fit]"
CC(C)(CO)NC(=O)C(Cc1ccccc1)N1C(=O)c2ccccc2C1=O (configuration not stated),–,"inconclusive: 0.316 µM [inhibitor, full curve, poor fit]"
Cc1cc(C)c(S(=O)(=O)NCC(c2ccco2)S(=O)(=O)c2cccs2)c(C)c1 (configuration not stated),–,"inconclusive: 126 µM [inhibitor, single point]"
CCCc1cc(=O)n2[nH]cc(-c3ccc(Cl)cc3)c2n1,inactive: 0%,–
Cc1cc(Cl)c(S(=O)(=O)NC(C(=O)O)c2ccccc2)cc1OCC(N)=O (configuration not stated),–,"inconclusive: 31.6 µM [inhibitor, partial curve, poor fit]"
COC(=O)c1ccc2ccccc2c1OS(=O)(=O)c1ccc(S(C)(=O)=O)cc1,inactive: -6.36%,–
COc1ccc(CNc2ccnc(-c3ccoc3)n2)c(OC)c1,–,"inconclusive: 7.08 µM [inhibitor, full curve, poor fit]"
COc1cc(C2C3=C(CC(C)(C)CC3=O)N(C)C3=C2C(=O)CC(C)(C)C3)ccc1O,–,"inconclusive: 31.6 µM [inhibitor, partial curve]"
COc1ccc(N2CCN(C(CNC(C)=O)c3ccco3)CC2)cc1 (configuration not stated),inactive: -3.3%,–
Cc1ccc(S(=O)(=O)N/N=C/c2ccc(O)c(O)c2)cc1[N+](=O)[O-],–,active: 50.1 µM
COc1cc(C(=O)N2CCN(c3ccccc3F)CC2)ccc1OCC(=O)N1CCOCC1,–,"inconclusive: 28.2 µM [inhibitor, single point]"
O=C(C1CCCN(Cc2cccc3ccccc23)C1)N1CCCCC1 (configuration not stated),–,active: 0.447 µM
COc1nc2ccccc2nc1N1CCC(C(=O)Nc2ccc(C(N)=O)cc2)CC1,–,"inconclusive: 39.8 µM [inhibitor, partial curve, poor fit]"

# 2 records drawn at random from those above, as already listed:
SMILES,"activity change, negative = inhibition",Potency
COc1ccc2nc(C[C@@H]3C[C@@H](C(C)C)[C@H](CNCc4ccccc4OC)C=C3C)[nH]c2c1,inactive: -7.71%,–
COc1cccc(Oc2coc3cc(OCc4ccccc4F)ccc3c2=O)c1,–,"inconclusive: 100 µM [inhibitor, partial curve, poor fit]"

# Source: PubChem BioAssay AID1671190 (National Center for Advancing Translational Sciences (NCATS), 2021)
